Data as given in article PMC11429574, “Biophysical and Solution Structure Analysis of Critical Residues Involved in the Interaction between the PupB N-Terminal Signaling Domain and PupR C-Terminal Cell Surface Signaling Domain from Pseudomonas capeferrum” (Biomolecules, 2024).
These are yes or no findings as the source states them, for the method shown. Tags and fused reporters may be left off the sequences shown.

Target: T1, PupB N-terminal signaling domain L74A (Pseudomonas capeferrum) (UniProt P38047)
T1 sequence: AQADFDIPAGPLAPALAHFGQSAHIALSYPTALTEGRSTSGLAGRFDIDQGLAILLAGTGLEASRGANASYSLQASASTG
Assay: condition: 140-230 µM MBP-PupR CCSSD titrated into 20-70 µM PupB NTSD mutant; ITC; MBP-PupR CCSSD (140-230 µM) titrated into PupB NTSD mutants (20-70 µM); 15 °C; 25 mM HEPES pH 7.5, 400 mM LiCl, 10% glycerol; triplicate, global single-site analysis (NITPIC, SEDPHAT); both purified

B1: MBP-PupR C-terminal cell surface signaling domain (domain or fragment, Pseudomonas capeferrum)
chain: QDWRADYHSRIGEQRRLTLADGTQVQLNTDSALNVAFDQQARRLRLVRGEMLITRPALADSRPLWVDTEHGRLESTLAQFNVRLHGQHTQATVYQGSVALQPALHAYPPILLGAGEQASFNQQGLLARQAVAAVAPAWSQGMLVAQGQPLAAFIEDLARYRRGHLACDPALAGLRVSGTFPLENTDKIIAAVAETLQLEVQHFTRYWVTLKPRMA
notes: PupR, inner membrane sigma regulator (anti-sigma factor) of Pseudomonas capeferrum; periplasmic C-terminal cell surface signaling domain; residues A240 to A300 are named as interface residues; A TEV site lies between MBP and the domain; the MBP fusion was used uncleaved in the ITC for solubility and stability; also called MBP-PupR CCSSD; PupR CCSSD; not shown: MBP, N-terminal, kept
B1 was tested, and the binding was “no binding”.
